The source of these data is PubChem BioAssay AID248 (DTP/NCI, 2004).

The list is a part of this screen's results and no random one: it is rich in T/C values a quarter to a half above the control, in often repeated tests (any T/C) and in doses without a T/C. Further doses and runs are listed elsewhere. T/C: endpoint of the treated group in % of that of the vehicle group. Some doses have a count of surviving animals in place of a T/C: the source files T/C as zero there, which appears to mark a toxic dose or a test without result, not a measured value. Some doses without a T/C left all or most animals alive at the check, yet need not have been tolerated: survival well below the control is almost never listed, so the zero probably covers shortened survival too. Counts of survivors are from the toxicity check (mostly the fifth day) where no day follows; animals may have died later. Schedules are NCI's codes, taken here to give the interval after Q, in days (D) or hours (H), and the number of doses after X. Some entries were tested several times; the values are given in rising order. Some schedule codes hold Z or #, which are not explained here. For survival time, the PubChem record calls one and a half times the control and up active, and a quarter to a half above the control has no call in these data; cut-offs in other NCI protocols can differ. Additions like (4×) say how often a value occurs here. Some T/C values carry the count of animals alive at the toxicity check (mostly the fifth day); without a count, all were alive then.

The test system of the test is L1210 leukemia ip in BDF1 mice, survival T/C. The test is described as follows: NCI In Vivo Anticancer Drug Screen. Data for tumor model L1210 Leukemia (intraperitoneal) in B6D2F1 (BDF1) mice. The note with it: higher T/C = longer survival.
Setting [1] is: T/C endpoint: mean survival time, dose: 6.0 mg/kg/injection, schedule: Q08HX027 (ip), vehicle: acetone.
The mark [2] stands for this setting: T/C endpoint: mean survival time, dose: 10.0 mg/kg/injection, schedule: Q12HX018 (ip), vehicle: acetone.
Where [3] appears, read: T/C endpoint: mean survival time, dose: 100.0 mg/kg/injection, schedule: Q01DX009 (ip), vehicle: saline with Tween-80.

For `Nc1ccc(NC(=S)S)cc1`, where the note is “T/C endpoint: mean survival time, dose: 300.0 mg/kg/injection, schedule: Q01DX001 (ip), vehicle: saline”, the survivor count is 0 of 6.
Consider `NC(CSC(c1ccccc1)(c1ccccc1)c1ccc2ccccc2c1)C(=O)O` (stereo not drawn), for which the T/C by setting is: (T/C endpoint: mean survival time, dose: 1.1 mg/kg/injection, schedule: Q01DX009 (ip), vehicle: saline) 138 % of control [5 of 6 alive]; (T/C endpoint: mean survival time, dose: 1.7 mg/kg/injection, schedule: Q01DX009 (ip), vehicle: saline) 128 % of control; (T/C endpoint: mean survival time, dose: 12.5 mg/kg/injection, schedule: Q01DX009 (ip), vehicle: other) 137 % of control. Besides, the survivor count (T/C endpoint: mean survival time, dose: 25.0 mg/kg/injection, schedule: Q01DX009 (ip), vehicle: saline) is given as 6 of 6; the survivor count (T/C endpoint: mean survival time, dose: 50.0 mg/kg/injection, schedule: Q01DX009 (ip), vehicle: other) is on record as 6 of 6; the survivor count (T/C endpoint: mean survival time, dose: 50.0 mg/kg/injection, schedule: Q01DX009 (ip), vehicle: saline) is listed as 5 of 6; the survivor count (T/C endpoint: mean survival time, dose: 100.0 mg/kg/injection, schedule: Q01DX009 (ip), vehicle: other) is listed as 6 of 6; the survivor count (T/C endpoint: mean survival time, dose: 100.0 mg/kg/injection, schedule: Q01DX009 (ip), vehicle: saline) was 6 of 6; the survivor count (T/C endpoint: mean survival time, dose: 200.0 mg/kg/injection, schedule: Q01DX009 (ip), vehicle: saline) is 5 of 6. The survivor count by setting is: (T/C endpoint: mean survival time, dose: 300.0 mg/kg/injection, schedule: Q01DX009 (ip), vehicle: saline) 3 of 6; (T/C endpoint: mean survival time, dose: 400.0 mg/kg/injection, schedule: Q01DX009 (ip), vehicle: saline) 0 of 6.
With `CN(C)CCOC(=O)c1ccc(CBr)cc1`, the survivor count runs as follows: (T/C endpoint: mean survival time, dose: 175.0 mg/kg/injection, schedule: Q01DX009 (ip), vehicle: saline) 0 of 6; (T/C endpoint: mean survival time, dose: 350.0 mg/kg/injection, schedule: Q01DX009 (ip), vehicle: saline) 0 of 6.
Consider `O=C(O)CCCc1ccc(N(CCCl)CCCl)cc1`, for which the T/C is 131 % of control (T/C endpoint: mean survival time, dose: 2.0 mg/kg/injection, schedule: Q08HX027 (ip), vehicle: acetone); 134 and 145 % of control (T/C endpoint: mean survival time, dose: 3.0 mg/kg/injection, schedule: Q08HX027 (ip), vehicle: acetone); 136 and 137 % of control (T/C endpoint: mean survival time, dose: 4.0 mg/kg/injection, schedule: Q12HX018 (ip), vehicle: acetone); 148 % of control (T/C endpoint: mean survival time, dose: 5.0 mg/kg/injection, schedule: Q08HX027 (ip), vehicle: acetone); 149 % of control under setting [1]; 134 and 146 % of control (T/C endpoint: mean survival time, dose: 6.0 mg/kg/injection, schedule: Q12HX018 (ip), vehicle: acetone). The T/C is, setting by setting: (T/C endpoint: mean survival time, dose: 8.0 mg/kg/injection, schedule: Q01DX009 (ip), vehicle: acetone) 149 % of control (2×); (T/C endpoint: mean survival time, dose: 8.0 mg/kg/injection, schedule: Q12HX018 (ip), vehicle: acetone) 130 and 146 % of control; (T/C endpoint: mean survival time, dose: 8.0 mg/kg/injection, schedule: Q12HX018 (ip), vehicle: other) 137 and 138 % of control; (T/C endpoint: mean survival time, dose: 10.0 mg/kg/injection, schedule: Q12HX018 (ip), vehicle: Klucel (hydroxypropylcellulose) (HPC)) 129 % of control; under setting [2], 134 % of control; (T/C endpoint: mean survival time, dose: 10.0 mg/kg/injection, schedule: Q12HX018 (ip), vehicle: saline with Tween-80) 135 % of control. The T/C runs as follows: (T/C endpoint: mean survival time, dose: 12.0 mg/kg/injection, schedule: Q01DX009 (ip), vehicle: acetone) 138 % of control; (T/C endpoint: mean survival time, dose: 14.5 mg/kg/injection, schedule: Q01DX Z (ip), vehicle: carboxymethylcellulose (CMC)) 131 % of control; (T/C endpoint: mean survival time, dose: 16.0 mg/kg/injection, schedule: Q01DX009 (ip), vehicle: saline with Tween-80) 129 % of control. Moreover, the survivor count was 6 of 6 under setting [1]; 5 of 6 under setting [2]; 2 of 6 (T/C endpoint: mean survival time, dose: 20.0 mg/kg/injection, schedule: Q01DX009 (ip), vehicle: acetone); 0 of 6 (T/C endpoint: mean survival time, dose: 50.0 mg/kg/injection, schedule: Q01DX Z (ip), vehicle: carboxymethylcellulose (CMC)); 0 of 6 (T/C endpoint: mean survival time, dose: 80.0 mg/kg/injection, schedule: Q01DX001 (ip), vehicle: carboxymethylcellulose (CMC)); 0 of 6 (T/C endpoint: mean survival time, dose: 160.0 mg/kg/injection, schedule: Q01DX001 (ip), vehicle: carboxymethylcellulose (CMC)). The survivor count by setting is: (T/C endpoint: mean survival time, dose: 320.0 mg/kg/injection, schedule: Q01DX001 (ip), vehicle: carboxymethylcellulose (CMC)) 0 of 6; (T/C endpoint: median survival time, dose: 24.0 mg/kg/injection, schedule: Q01DX009 (ip), vehicle: saline) 5 of 8.
For `CC(=O)c1ccc(OC(=O)Nc2ccc(Cl)cc2)cc1`, the T/C under setting [3] was 86 [5 of 6 alive], 103 [4 of 6 alive], 112 % of control [2 of 3 alive]. Besides, the survivor count by setting is: under setting [3], 2 of 3; (T/C endpoint: mean survival time, dose: 200.0 mg/kg/injection, schedule: Q01DX009 (ip), vehicle: saline with Tween-80) 5 of 6 and 3 of 3; (T/C endpoint: mean survival time, dose: 400.0 mg/kg/injection, schedule: Q01DX009 (ip), vehicle: saline with Tween-80) 3 of 6 and 3 of 3; (T/C endpoint: mean survival time, dose: 400.0 mg/kg/injection, schedule: Q04DX003 (ip), vehicle: saline with Tween-80) 3 of 6.
For the compound `CN(C)N=Nc1ccccc1C(=O)O`, the survivor count runs as follows: (T/C endpoint: mean survival time, dose: 6.25 mg/kg/injection, schedule: Q01DX009 (ip), vehicle: Klucel (hydroxypropylcellulose) (HPC)) 6 of 6; (T/C endpoint: mean survival time, dose: 12.5 mg/kg/injection, schedule: Q01DX009 (ip), vehicle: Klucel (hydroxypropylcellulose) (HPC)) 6 of 6; (T/C endpoint: mean survival time, dose: 25.0 mg/kg/injection, schedule: Q01DX009 (ip), vehicle: Klucel (hydroxypropylcellulose) (HPC)) 6 of 6; (T/C endpoint: mean survival time, dose: 50.0 mg/kg/injection, schedule: Q01DX009 (ip), vehicle: Klucel (hydroxypropylcellulose) (HPC)) 4 of 6; (T/C endpoint: mean survival time, dose: 50.0 mg/kg/injection, schedule: Q01DX009 (ip), vehicle: saline with Tween-80) 1 of 6. Moreover, the T/C (T/C endpoint: mean survival time, dose: 25.0 mg/kg/injection, schedule: Q01DX009 (ip), vehicle: saline with Tween-80) was 135 % of control.
As for `O=C1C(Cl)=C(N2CC2)C(=O)C(Cl)=C1N1CC1`, the T/C runs as follows: (T/C endpoint: mean survival time, dose: 0.62 mg/kg/injection, schedule: Q01DX009 (ip), vehicle: saline) 128 % of control [5 of 6 alive]; (T/C endpoint: mean survival time, dose: 2.5 mg/kg/injection, schedule: Q01DX009 (ip), vehicle: saline) 125 % of control. Further, the survivor count was 2 of 6 (T/C endpoint: mean survival time, dose: 5.0 mg/kg/injection, schedule: Q01DX009 (ip), vehicle: saline) and 0 of 6 (T/C endpoint: mean survival time, dose: 20.0 mg/kg/injection, schedule: Q01DX009 (ip), vehicle: saline).
Turning to `Cc1ccc2c(c1)C1CCC3(CC1OC2(C)C)OC(C)(C)c1cc(C)ccc13` (stereo not drawn), the survivor count (T/C endpoint: mean survival time, dose: 400.0 mg/kg/injection, schedule: Q01DX009 (ip), vehicle: Klucel (hydroxypropylcellulose) (HPC)) is reported as 6 of 6.
Regarding `O=C1NC(=O)C(Nc2ccccc2)(c2ccccc2)N1` (stereo not drawn), the survivor count (T/C endpoint: mean survival time, dose: 400.0 mg/kg/injection, schedule: Q01DX001 (ip), vehicle: Klucel (hydroxypropylcellulose) (HPC)) was 1 of 6.
For the compound `c1nc(SC2CCCC2)c2[nH]cnc2n1`, the T/C is 131 % of control (T/C endpoint: mean survival time, dose: 85.0 mg/kg/injection, schedule: Q01DX Z (oral), vehicle: carboxymethylcellulose (CMC)); 129 % of control (T/C endpoint: mean survival time, dose: 100.0 mg/kg/injection, schedule: Q01DX009 (ip), vehicle: carboxymethylcellulose (CMC)); 140 % of control (T/C endpoint: mean survival time, dose: 170.0 mg/kg/injection, schedule: Q01DX Z (ip), vehicle: carboxymethylcellulose (CMC)); 149 % of control (T/C endpoint: mean survival time, dose: 170.0 mg/kg/injection, schedule: Q01DX Z (oral), vehicle: carboxymethylcellulose (CMC)); 127 % of control (T/C endpoint: mean survival time, dose: 200.0 mg/kg/injection, schedule: Q01DX009 (ip), vehicle: carboxymethylcellulose (CMC)); 129 % of control (T/C endpoint: mean survival time, dose: 400.0 mg/kg/injection, schedule: Q01DX009 (ip), vehicle: carboxymethylcellulose (CMC)). The T/C is 130 % of control (T/C endpoint: mean survival time, dose: 600.0 mg/kg/injection, schedule: Q01DX001 (ip), vehicle: carboxymethylcellulose (CMC)) and 137 % of control (T/C endpoint: mean survival time, dose: 680.0 mg/kg/injection, schedule: Q01DX Z (oral), vehicle: carboxymethylcellulose (CMC)). The survivor count (T/C endpoint: mean survival time, dose: 800.0 mg/kg/injection, schedule: Q01DX009 (ip), vehicle: carboxymethylcellulose (CMC)) is reported as 2 of 6.
